Where a chain is given by its changes, count along the chain named. Results are given in words; binding and its absence hold for the method and conditions named. Some binding calls cover weakened binding; strength is not graded here. Blank lines part the entries; values can stand above or below the binder they belong to.
How the values were obtained:
[1] = target: canine NGF tagged at the C-terminus with the Flag tag (canine); assay: SPR (Biacore T200), antibody captured on an anti-feline coupled CM5 chip, NGF as analyte at 50, 25, 12.5, 6.25, 3.125 and 1.56 nM
[2] = target: canine NGF tagged at the C-terminus with the Flag tag (canine); assay: SPR

B2: SC-184_110-Arg (antibody, V domains shown)
VH: DVQLVESGGDLVKPGGSLRLTCVASGLSLTSASMSWVRQAPGKGLQWVSTIYSNRGTYYTDSVKGRFTISKDNAENTLYLQMNNLKTEDTATYYCASIYYYEAEYLHWYFDFWGQGALVTVSS
VL: EIQMTQSPTSLSASVGDRVTITCRASEGISKNLSWYQQTPGKAPKLLIYATDNLHSGVPSRFSGSGSGTDFTLTISSLQPEDFATYYCQQGWKWPLTFGGGTKLEIT
binding [1]: binds

B4: canine 2166 chimeric antibody (antibody, V domains shown)
VH: QVQLKESGPGLVQPSQTLSLTCTVSGLSLTSNSVSWIRQPPGKGLEWMGVIWSNGGTDYNSAIESRLSINRDTSKSQVFLKMNSLQPEDTAMYFCASIYYYDADYLHWYFDFWGPGTMVTVSS
VL: DIQMTQSPASLSASLGETVSIECLASEGISNSLAWYQLKPGKSPQFLIYATSSLQDGVPSRFSGSGSGTQYSLKISGMQPEDEGVYYCQQGYKFPLTFGSGTKLKIKR
binding [2]: binds

Now from value to binder:

binding [1]: binds
B1: SC-184_110 (antibody, IgG1a, V domains shown)
VH: B2 VH with R55G
VL: B2 VL

binding [2]: binds
B3: felinized clone 101 (antibody, V domains shown)
VH: B2 VH with A32S, R55G, E102D, E104D
VL: B2 VL with K31N, D52S, W92Y

Source: patent US20250011410A1
